Source: PubChem BioAssay AID1159584 (Peter MacCallum Cancer Centre, 2016)
Screen: 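Genes that CDH1-null MCF10A cells selectively depend on to survive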 (primary screen). Cells: human MCF10A breast epithelial cells, parental and CDH1-null. Reagents: siRNA against human genes. Read-out: 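ATP luminescence (CellTiter-Glo) viability per line relative to mean mock wells over all plates, and the ratio of CDH1-null to parental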. Scale: CDH1-null / parental viability ratio: higher = CDH1-null cells survive relatively better than parental; CDH1-null viability vs mock: higher = more viable CDH1-null cells; parental viability vs mock: higher = more viable parental cells.
Here is one part, drawn at random, of about 18,000 deposited reagents. Not stated in the record: the amount of reagent, the time to read-out.

gene	CDH1-null / parental viability ratio	CDH1-null viability vs mock (fraction of mock)	parental viability vs mock (fraction of mock)
SLC67A2	0.97	0.7	0.72
CREBBP	1.08	0.8	0.74
CNPY2	0.91	0.8	0.88
MYO19	0.88	0.84	0.96
ENO3	0.72	0.58	0.8
MIOX	1.38	0.62	0.45
TBC1D25	1.11	0.42	0.38
ERCC4	0.97	0.74	0.76
XAB2	0.65	0.26	0.4
RAP2B	1.07	1.08	1.01
MIR9-1HG	1.18	0.66	0.56
MSTN	0.82	0.7	0.85
SNCA	0.64	0.64	1
FES	0.71	0.56	0.79
PRSS38	1.39	0.57	0.41
AP5Z1	1.21	0.92	0.76
WDR48	1.45	0.64	0.44
SYNE1	0.85	0.9	1.06
STOM	0.74	0.58	0.78
CD163	1.01	0.86	0.85

A run of entries from the list above, for reference:
gene	CDH1-null / parental viability ratio	CDH1-null viability vs mock (fraction of mock)	parental viability vs mock (fraction of mock)
ERCC4	0.97	0.74	0.76
XAB2	0.65	0.26	0.4
RAP2B	1.07	1.08	1.01

The listing continues.
gene	CDH1-null / parental viability ratio	CDH1-null viability vs mock (fraction of mock)	parental viability vs mock (fraction of mock)
ACSS1	1.16	0.44	0.38
EEA1	1.09	0.86	0.79
APRT	1.08	0.82	0.76
LDAF1	0.92	0.89	0.97
ADGRB3	0.57	0.5	0.87
SEMA4B	0.75	0.46	0.61
IL1A	1.07	1.11	1.04
TMEM242	1.08	0.91	0.84
MT3	0.97	0.75	0.77
LYRM1	1.09	0.84	0.77
PDLIM2	0.59	0.48	0.82
UGT2B7	0.65	0.74	1.14
NRXN3	1.1	0.77	0.7
ZBTB37	0.69	0.72	1.04
GPX7	0.94	0.6	0.64
IL17RB	1.04	1.01	0.97
TBC1D15	0.92	0.73	0.79
RPL30	1.5	0.3	0.2
RNF170	0.93	0.86	0.92
TENT2	1.1	0.86	0.78
SLC25A33	1.22	0.96	0.79
SLC9A4	1.22	0.71	0.58
RAB30	1.04	1.02	0.98
DYNLT1	1.17	0.82	0.7
RPL36AL	1.02	0.84	0.82
TRABD	0.62	0.47	0.76
